Data from PubChem BioAssay AID330 (DTP/NCI, 2004).
The list does not hold the whole screen: it gathers tests that were run many times, whatever their T/C, doses with no T/C, and many T/C values between a quarter and a half above the control. Further doses and runs are listed elsewhere. T/C: endpoint of the treated group in % of that of the vehicle group. Some doses have a count of surviving animals in place of a T/C: the source holds a T/C of zero for them, seemingly a mark for toxic or unscored doses. Some survivor counts are full or nearly so, which does not show that the dose was tolerated: the source hardly ever lists a survival T/C far under the control, and the zero likely stands for such cases as well. Counts of survivors are from the toxicity check (mostly the fifth day) where no day follows; animals may have died later. Schedules are NCI's codes, read here as Q, the interval in days (D) or hours (H), X, the number of doses. Some schedules carry Z or #; the key to these is not given. Some entries were tested several times; their values stand side by side, smallest first. Where survival is the endpoint, this PubChem deposit counts one and a half times the control or more as active, and values a quarter to a half above the control carry no call in these data; other NCI protocols may use other cut-offs. Some T/C values carry the count of animals alive at the toxicity check (mostly the fifth day); where none is given, no animal had died by that day.

Tested on: P388 leukemia ip, CD2F1 mice, survival T/C
Assay: NCI In Vivo Anticancer Drug Screen. Data for tumor model P388 Leukemia (intraperitoneal) in CD2F1 (CDF1) mice
Details: T/C endpoint: median survival time, higher T/C = longer survival
[1] = dose: 200.0 mg/kg/injection, schedule: Q01DX005 (ip), vehicle: saline with Tween-80
[2] = dose: 200.0 mg/kg/injection, schedule: Q01DX009 (ip), vehicle: suspension in saline
[3] = dose: 100.0 mg/kg/injection, schedule: Q01DX009 (ip), vehicle: saline
[4] = dose: 200.0 mg/kg/injection, schedule: Q01DX009 (ip), vehicle: saline
[5] = dose: 12.5 mg/kg/injection, schedule: Q01DX009 (ip), vehicle: saline
[6] = dose: 25.0 mg/kg/injection, schedule: Q01DX009 (ip), vehicle: saline
[7] = dose: 50.0 mg/kg/injection, schedule: Q01DX009 (ip), vehicle: saline
[8] = dose: 60.0 mg/kg/injection, schedule: Q01DX005 (ip), vehicle: saline with Tween-80

**Q.** `COc1cccc2c1C(=O)c1c(O)c3c(c(O)c1C2=O)C[C@@](O)(CO)C[C@@H]3OC1CC(N)C(O)C(C)O1` (some centres not stated) was tested. Which T/C (dose: 0.2 mg/kg/injection, schedule: Q01DX009 (ip), vehicle: water) did it give?
**A.** 135 % of control

**Q.** And the T/C (dose: 0.39 mg/kg/injection, schedule: Q01DX009 (ip), vehicle: water)?
**A.** 137 % of control

**Q.** What about the survivor count (dose: 6.25 mg/kg/injection, schedule: Q01DX009 (ip), vehicle: water) of the same molecule?
**A.** 6 of 6

**Q.** What about the T/C (dose: 9.0 mg/kg/injection, schedule: Q04DX003 (ip), vehicle: water) of the same molecule?
**A.** 143 % of control

**Q.** What about the survivor count (dose: 12.5 mg/kg/injection, schedule: Q01DX009 (ip), vehicle: water) of the same molecule?
**A.** 3 of 6

**Q.** What about the survivor count (dose: 25.0 mg/kg/injection, schedule: Q01DX009 (ip), vehicle: water) of the same molecule?
**A.** 0 of 6

**Q.** Which survivor count (dose: 400.0 mg/kg/injection, schedule: Q01DX009 (ip), vehicle: saline with Tween-80) does the source give for `Nc1ccc(-c2ccc(N)c(Cl)c2)cc1Cl` here?
**A.** 1 of 6

**Q.** How did the survivor count [1] turn out when `O=C1CC2COc3ccc(OCCN4CCCC4)cc3C2=NN1c1ccccc1` (configuration not stated) was run?
**A.** 3 of 6

**Q.** `Cn1nc(C#N)c(=O)[nH]c1=O` was tested. Which survivor count (dose: 100.0 mg/kg/injection, schedule: Q01DX005 (ip), vehicle: saline with Tween-80) did it give?
**A.** 0 of 6

**Q.** What about the survivor count [1] of the same molecule?
**A.** 0 of 6

**Q.** With `[Cl][Pt][Cl].[NH-]C(CO)C(=O)O` (configuration not stated) as the molecule, how does the T/C (dose: 6.25 mg/kg/injection, schedule: Q01DX005 (ip), vehicle: water) read?
**A.** 125 % of control

**Q.** What about the T/C (dose: 12.5 mg/kg/injection, schedule: Q01DX005 (ip), vehicle: water) of the same molecule?
**A.** 125 % of control

**Q.** And the T/C (dose: 25.0 mg/kg/injection, schedule: Q01DX005 (ip), vehicle: water)?
**A.** 127 % of control

**Q.** And the T/C (dose: 50.0 mg/kg/injection, schedule: Q01DX005 (ip), vehicle: water)?
**A.** 142 % of control

**Q.** What about the survivor count (dose: 100.0 mg/kg/injection, schedule: Q01DX005 (ip), vehicle: water) of the same molecule?
**A.** 0 of 6 and 3 of 6

**Q.** Which survivor count [2] does the source give for `O=c1[nH]ncc(=S)[nH]1` here?
**A.** 6 of 6

**Q.** What does the source list for `C[CH2][Sn]([CH2]C)[S]CC(N)C(=O)O` (configuration not stated)?
**A.** T/C (dose: 15.0 mg/kg/injection, schedule: Q01DX005 (ip), vehicle: Klucel (hydroxypropylcellulose) (HPC)): 125 % of control; survivor count (dose: 60.0 mg/kg/injection, schedule: Q01DX005 (ip), vehicle: Klucel (hydroxypropylcellulose) (HPC)): 0 of 6; survivor count (dose: 120.0 mg/kg/injection, schedule: Q01DX005 (ip), vehicle: Klucel (hydroxypropylcellulose) (HPC)): 0 of 6; survivor count (dose: 240.0 mg/kg/injection, schedule: Q01DX005 (ip), vehicle: Klucel (hydroxypropylcellulose) (HPC)): 0 of 6

**Q.** What does the source list for `CCN(CC)CCCC(C)Nc1c2ccc(Cl)cc2nc2ccc(OC)cc12` (configuration not stated)?
**A.** T/C (dose: 12.0 mg/kg/injection, schedule: Q03HX024 (ip), vehicle: saline with Tween-80): 126 % of control; T/C (dose: 32.0 mg/kg/injection, schedule: Q01DX009 (ip), vehicle: saline with Tween-80): 127 % of control; T/C (dose: 64.0 mg/kg/injection, schedule: Q01DX009 (ip), vehicle: saline with Tween-80): 127 [5 of 6 alive] and 148 % of control; survivor count (dose: 64.0 mg/kg/injection, schedule: Q#A X018 (ip), vehicle: saline with Tween-80): 5 of 6; survivor count (dose: 128.0 mg/kg/injection, schedule: Q01DX009 (ip), vehicle: saline with Tween-80): 3 of 6; survivor count (dose: 128.0 mg/kg/injection, schedule: Q#A X018 (ip), vehicle: saline with Tween-80): 4 of 6; T/C (dose: 160.0 mg/kg/injection, schedule: Q04DX003 (ip), vehicle: saline with Tween-80): 125 % of control; survivor count (dose: 192.0 mg/kg/injection, schedule: Q04DX003 (ip), vehicle: saline with Tween-80): 4 of 6; survivor count (dose: 256.0 mg/kg/injection, schedule: Q01DX009 (ip), vehicle: saline with Tween-80): 0 of 6; survivor count (dose: 256.0 mg/kg/injection, schedule: Q01DX009 (ip), vehicle: suspension in saline): 0 of 6; survivor count (dose: 287.0 mg/kg/injection, schedule: Q01DX001 (ip), vehicle: saline with Tween-80): 1 of 6; survivor count (dose: 320.0 mg/kg/injection, schedule: Q04DX003 (ip), vehicle: saline with Tween-80): 0 of 6; survivor count (dose: 384.0 mg/kg/injection, schedule: Q04DX003 (ip), vehicle: saline with Tween-80): 2 of 6; survivor count (dose: 575.0 mg/kg/injection, schedule: Q01DX001 (ip), vehicle: saline with Tween-80): 0 of 6; survivor count (dose: 768.0 mg/kg/injection, schedule: Q04DX003 (ip), vehicle: saline with Tween-80): 0 of 6; survivor count (dose: 1150.0 mg/kg/injection, schedule: Q01DX001 (ip), vehicle: saline with Tween-80): 0 of 6; survivor count (dose: 2300.0 mg/kg/injection, schedule: Q01DX001 (ip), vehicle: saline with Tween-80): 0 of 6

**Q.** With `NC(=O)c1[nH]c(=O)[nH]c(=O)c1CSc1ccc(Cl)cc1` as the molecule, how does the survivor count [1] read?
**A.** 5 of 6

**Q.** How did the survivor count [3] turn out when `CCCCCCCCCCCCc1ccc(C[N+](C)(C)CC[N+](C)(C)Cc2ccc(CCCCCCCCCCCC)cc2)cc1` was run?
**A.** 0 of 6

**Q.** And the survivor count [4]?
**A.** 0 of 6

**Q.** With `C=CC1CN2CCC1CC2C(O)c1ccnc2ccccc12` (configuration not stated) as the molecule, how does the survivor count (dose: 240.0 mg/kg/injection, schedule: Q01DX005 (ip), vehicle: saline) read?
**A.** 0 of 6

**Q.** With `Cc1c2c[n+](CCCCCCCC[n+]3ccc4c(C)c5c(c(C)c4c3)c3ccccc3n5CCO)ccc2c(C)c2c1c1ccccc1n2CCO` as the molecule, how does the T/C (dose: 3.13 mg/kg/injection, schedule: Q04DX003 (ip), vehicle: distilled water + Tween-80) read?
**A.** 147 and 148 % of control

**Q.** And the survivor count (dose: 25.0 mg/kg/injection, schedule: Q04DX003 (ip), vehicle: distilled water + Tween-80)?
**A.** 5 of 6

**Q.** What about the survivor count (dose: 50.0 mg/kg/injection, schedule: Q04DX003 (ip), vehicle: distilled water + Tween-80) of the same molecule?
**A.** 6 of 6

**Q.** And the survivor count (dose: 100.0 mg/kg/injection, schedule: Q04DX003 (ip), vehicle: distilled water + Tween-80)?
**A.** 5 of 6

**Q.** Which survivor count (dose: 6.25 mg/kg/injection, schedule: Q01DX005 (ip), vehicle: Klucel (hydroxypropylcellulose) (HPC)) does the source give for `CSc1nc(C)c(Br)c(N2CC2)n1` here?
**A.** 6 of 6

**Q.** What about the survivor count (dose: 12.5 mg/kg/injection, schedule: Q01DX005 (ip), vehicle: Klucel (hydroxypropylcellulose) (HPC)) of the same molecule?
**A.** 6 of 6

**Q.** And the survivor count (dose: 100.0 mg/kg/injection, schedule: Q01DX005 (ip), vehicle: Klucel (hydroxypropylcellulose) (HPC))?
**A.** 5 of 6

**Q.** And the survivor count (dose: 200.0 mg/kg/injection, schedule: Q01DX005 (ip), vehicle: Klucel (hydroxypropylcellulose) (HPC))?
**A.** 0 of 6

**Q.** For `O/N=C/C1CCCC[N-]1.O/N=C/C1CCCC[N-]1.O/N=C/C1CCCC[N-]1.[Cu]` (configuration not stated), which survivor count (dose: 6.25 mg/kg/injection, schedule: Q01DX009 (ip), vehicle: saline) is on record?
**A.** 6 of 6

**Q.** And the survivor count [5]?
**A.** 5 of 6

**Q.** What about the survivor count [6] of the same molecule?
**A.** 1 of 6

**Q.** What about the survivor count [7] of the same molecule?
**A.** 0 of 6

**Q.** What about the survivor count [3] of the same molecule?
**A.** 0 of 6

**Q.** What about the survivor count [4] of the same molecule?
**A.** 0 of 6

**Q.** `O=C(NC(=S)Nc1cccc2c(O)cccc12)c1cccc(Br)c1` was tested. Which survivor count [8] did it give?
**A.** 6 of 6

**Q.** And the survivor count (dose: 120.0 mg/kg/injection, schedule: Q01DX005 (ip), vehicle: saline with Tween-80)?
**A.** 6 of 6

**Q.** `C(=P(c1ccccc1)(c1ccccc1)c1ccccc1)[P+](c1ccccc1)(c1ccccc1)c1ccccc1` was tested. Which T/C [5] did it give?
**A.** 127 % of control

**Q.** What about the T/C [6] of the same molecule?
**A.** 140 % of control

**Q.** What about the T/C (dose: 25.0 mg/kg/injection, schedule: Q01DX009 (ip), vehicle: suspension in saline) of the same molecule?
**A.** 137 % of control

**Q.** Which survivor count [7] does the source give for `CN(C(=S=O)c1ccc(Cl)cc1)c1ccccc1` here?
**A.** 6 of 6

**Q.** And the survivor count (dose: 50.0 mg/kg/injection, schedule: Q01DX009 (ip), vehicle: suspension in saline)?
**A.** 6 of 6

**Q.** What about the survivor count [2] of the same molecule?
**A.** 6 of 6

**Q.** Which results are given for `Cc1ccc2cccc(OC(=O)Nc3cc(Cl)c(Cl)cc3Cl)c2n1`?
**A.** survivor count [8]: 6 of 6; survivor count (dose: 120.8 mg/kg/injection, schedule: Q01DX005 (ip), vehicle: saline with Tween-80): 6 of 6

**Q.** Which survivor count (dose: 200.0 mg/kg/injection, schedule: Q01DX009 (ip), vehicle: Klucel (hydroxypropylcellulose) (HPC)) does the source give for `O=c1nc2c3[nH]cnc3ncn2o1` here?
**A.** 3 of 6

**Q.** For `Cc1c2oc(=O)cc(-c3ccccc3)c2cc2c(=O)ccoc12`, which survivor count (dose: 50.0 mg/kg/injection, schedule: Q01DX005 (ip), vehicle: saline with Tween-80) is on record?
**A.** 6 of 6
